Laboratory results reported in PubChem BioAssay AID504467 (National Center for Advancing Translational Sciences (NCATS), 2011).
The campaign covered roughly 330,000 compounds. About 7,700 (2.3%) were called active. Inconclusive means that the source gave no clear call. Such entries were picked first, then a sample of the others. Calls follow the shape of the dose curve; as a rule, active = well fitted inhibition curve with a large enough effect; inconclusive = small, poorly fitted or top-dose-only effect, or effect the other way; inactive = flat fitted curve, though single readings scatter. Potencies of inconclusive entries are doubtful fits and often do not repeat. Non-standard residues stand in square brackets, D forms with d. Residues, ends and D or L forms follow the SMILES beside them.

Assay: qHTS screen for small molecules that inhibit ELG1-dependent DNA repair in human embryonic kidney (HEK293T) cells expressing luciferase-tagged ELG1; also: nearly all actives have a fitted effect of over 55% in size
Conditions: HEK293T ELG1-luciferase reporter, luminescence, 16 h, DNA damage induced by 5-fluorouridine; series mostly up to 46.1 µM
Procedure, shortened: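 In this reporter screen, reduction of luminescence relative to DMSO vehicle indicated activity. Compounds and 5-fluorouridine were added together to 2,000 cells per well, incubated for 16 hr at 37 °C, then developed with ONE-Glo.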
Potency is read from the fitted curve at half-maximal effect.

Row | Structure (SMILES) | Potency
1 | O=C(/C=C/c1ccccc1[N+](=O)[O-])NCCCN1CCCC1=O | inconclusive: 11.6 µM [activator, partial curve]
2 | CCOc1ccc(NC(=S)N(CCCN2CCOCC2)Cc2cn(C)c3ccccc23)cc1 | inconclusive: 10.3 µM [inhibitor, partial curve]
3 | COc1ccc(-c2noc(CCC(=O)NCCCN3CCN(c4ccccc4F)CC3)n2)cc1 | inconclusive: 14.6 µM [inhibitor, partial curve]
4 | COc1ccccc1NC(=O)c1cc(Cl)nc2ccccc12 | inactive
5 | O=C(c1ccc(CS(=O)Cc2ccc(Cl)cc2)o1)N1CCN(c2ccccn2)CC1 (configuration not stated) | inconclusive: 13 µM [inhibitor, partial curve]
6 | CC(O)c1cccc(NC(=O)CC(c2ccccc2)c2ccccc2)c1 (configuration not stated) | inconclusive: 18.3 µM [inhibitor, single point]
7 | CCCS(=O)(=O)n1nc(-c2ccc(OC)cc2OC)cc1N | inconclusive: 29.1 µM [activator, single point]
8 | CC(=O)Nc1cccc(N/C=C(\C=O)c2nc3ccccc3o2)c1 | inconclusive: 3.66 µM [activator, full curve, poor fit]
9 | CC(C)(C)NC(=O)C(c1ccncc1)N(CC1CCCO1)C(=O)Cn1nnc(-c2ccc(F)cc2)n1 (configuration not stated) | inactive
10 | O=C(COc1ccccc1O)NCCN1CCOCC1 | inconclusive: 10.3 µM [activator, partial curve, poor fit]
11 | CCC(CC)CN1C(Nc2ccccc2)=NC[C@@H]1C | inconclusive: 0.058 µM [activator, partial curve, poor fit]
12 | O=C(/C=C/c1ccc(-c2ccccc2)cc1)NCc1cccnc1 | inconclusive: 35.5 µM [activator, single point]
13 | CCC1CCCCN1CCCNC(=O)c1ccc2nc(N3CCCCC3)sc2c1 (configuration not stated) | inconclusive: 0.517 µM [activator, full curve]
14 | COC(=O)c1c(NC(=O)CN(c2ccc(C)c(C)c2)S(C)(=O)=O)sc2c1CCCC2 | inconclusive: 32.6 µM [inhibitor, single point]
15 | c1ccc2c(c1)CCNC2c1ccncc1 (configuration not stated) | inconclusive: 1.16 µM [activator, single point]
16 | CC(C)CC(=O)NC(=S)NNC(=O)c1ccc(NC(=O)C2CCCCC2)cc1 | inactive
17 | COCCNC(=O)c1onc(CSc2ccccc2F)c1C(=O)O | inactive
18 | Cc1cccc(NC(=O)CSCC(=O)Nc2ccc(S(=O)(=O)N3CCCC3)cc2)c1 | inconclusive: 3.66 µM [inhibitor, single point]
19 | CC[C@H](C)[C@@H]1NC(=O)[C@H]([C@@H](C)CC)NC(=O)[C@@H](CC(C)C)NC(=O)[C@H](Cc2ccccc2)NC(=O)[C@H](Cc2ccccc2)NC(=O)[C@@H]2CCCN2C(=O)[C@@H]2CCCN2C(=O)[C@H](C(C)C)NC(=O)[C@H](CC(C)C)NC1=O (cyclo(FF[dL]IILVPP)) | inconclusive: 23.1 µM [inhibitor, single point]
20 | COc1ccc(CN2C(=O)C(Cc3ccccc3)Nc3ncnc(N4CCCCC4)c32)cc1 (configuration not stated) | inconclusive: 25.9 µM [activator, single point]
21 | CC1CCN(S(=O)(=O)c2ccc(NC(=O)Cn3nnc(-c4ccccc4)n3)cc2)CC1 | inactive

Compounds shown so far containing two or more sulfur atoms (2):
Row | Structure (SMILES) | Potency
14 | COC(=O)c1c(NC(=O)CN(c2ccc(C)c(C)c2)S(C)(=O)=O)sc2c1CCCC2 | inconclusive: 32.6 µM [inhibitor, single point]
18 | Cc1cccc(NC(=O)CSCC(=O)Nc2ccc(S(=O)(=O)N3CCCC3)cc2)c1 | inconclusive: 3.66 µM [inhibitor, single point]

The list goes on:

Row | Structure (SMILES) | Potency
22 | COc1ccc(NC(=S)N/N=C/c2ccc(F)cc2)cc1OC | inactive
23 | COc1ccc(/C(O)=C(\C#N)c2nc3ccccc3n2C)cc1OC | inactive
24 | Cc1cc(C)c(NC(=O)CN2C(=O)NC3(CCCCC3)C2=O)c(C)c1 | inactive
25 | O=C(Nc1cccc2nsnc12)c1cccnc1Cl | inactive
26 | Cc1c(CC(=O)NCC(=O)NCC(=O)O)c(=O)oc2cc3oc4c(c3cc12)CCCC4 | inconclusive: 11.6 µM [activator, partial curve]
27 | O=C(CSC1=NCCS1)Nc1ccc(S(=O)(=O)N2CCCCCC2)cc1 | inconclusive: 29.1 µM [inhibitor, single point]
28 | Cn1c(=O)cc(OCCCC(=O)NCc2ccc(F)cc2Cl)c2ccccc21 | inconclusive: 11.6 µM [activator, partial curve]
29 | Cc1nc2ccccc2c(=O)n1/N=C/c1ccc(O)cc1O | inactive
30 | CC1=NN(c2ccccc2)C(=O)/C1=C\c1ccc(Br)s1 | inconclusive: 29.1 µM [activator, single point]
31 | COC(=O)c1sc(NC(=S)NC(=O)c2ccccc2)nc1C | inconclusive: 3.66 µM [activator, full curve]
32 | Cc1ccc(C(=O)NCCS(=O)(=O)N2CCN(c3ccccc3F)CC2)cc1[N+](=O)[O-] | active: 20.6 µM
33 | O=C(CSc1nc2ccccc2c(=O)n1-c1ccccc1)N1CCCc2ccccc21 | inconclusive: 29.1 µM [inhibitor, single point]
34 | CN(CCC#N)C(=O)COC(=O)c1ccc2[nH]c3c(c2c1)CCCC3 | inconclusive: 20.6 µM [activator, partial curve]
35 | Cc1ccc(C(=O)CSc2nnc3c4ccccc4nc(C(C)(C)C)n23)cc1 | active: 16.4 µM
36 | O=C(N/N=C/c1cccc(F)c1)c1cc(-c2ccco2)nc2ccccc12 | inconclusive: 29.1 µM [activator, single point]
37 | COc1ccc(NC(=O)COC(=O)C23CC4CC(CC(Cl)(C4)C2)C3)c(OC)c1 | inconclusive: 20.6 µM [inhibitor, partial curve, poor fit]
38 | COC(=O)c1[nH]c2c(c1C)C(=O)CC(c1cccs1)C2 (configuration not stated) | inconclusive: 29.1 µM [activator, single point]
39 | CCn1c(=O)n(Cc2ccco2)c(=N)c2c3c(sc21)COC(C)(C)C3 | inconclusive: 23.1 µM [inhibitor, partial curve, poor fit]
40 | O=C(COC(=O)c1ccccc1O)Nc1ccc2ccccc2c1 | inconclusive: 23.1 µM [activator, single point]
41 | Cc1ccc(NC2=Nc3ccccc3N3C2=Nc2c(c(C)nn2-c2ccccc2)C3c2ccc(O)c(O)c2)cc1 (configuration not stated) | inactive
42 | Cc1nc(SCC(=O)NCc2cccs2)nc(C)c1C | inactive
